Reference: publication PMC3900522
Results are given in words; binding and its absence hold for the method and conditions named. In cells and extracts the contact can be indirect. Some entries that bind do so weakly or less than the wild type.

Protein sequences, listed by entry. Tags and fused reporters are not part of them. Lines headed by an entry give the natural chain unless they say otherwise; changes in a name come on top. Chains listed by the source or under a name are the forms on record and can include a tag or linker. Residues count along the entry.
FGFR3, wild-type, overexpressed in MGHU3 bladder cancer cells (P22607, residues 23-806): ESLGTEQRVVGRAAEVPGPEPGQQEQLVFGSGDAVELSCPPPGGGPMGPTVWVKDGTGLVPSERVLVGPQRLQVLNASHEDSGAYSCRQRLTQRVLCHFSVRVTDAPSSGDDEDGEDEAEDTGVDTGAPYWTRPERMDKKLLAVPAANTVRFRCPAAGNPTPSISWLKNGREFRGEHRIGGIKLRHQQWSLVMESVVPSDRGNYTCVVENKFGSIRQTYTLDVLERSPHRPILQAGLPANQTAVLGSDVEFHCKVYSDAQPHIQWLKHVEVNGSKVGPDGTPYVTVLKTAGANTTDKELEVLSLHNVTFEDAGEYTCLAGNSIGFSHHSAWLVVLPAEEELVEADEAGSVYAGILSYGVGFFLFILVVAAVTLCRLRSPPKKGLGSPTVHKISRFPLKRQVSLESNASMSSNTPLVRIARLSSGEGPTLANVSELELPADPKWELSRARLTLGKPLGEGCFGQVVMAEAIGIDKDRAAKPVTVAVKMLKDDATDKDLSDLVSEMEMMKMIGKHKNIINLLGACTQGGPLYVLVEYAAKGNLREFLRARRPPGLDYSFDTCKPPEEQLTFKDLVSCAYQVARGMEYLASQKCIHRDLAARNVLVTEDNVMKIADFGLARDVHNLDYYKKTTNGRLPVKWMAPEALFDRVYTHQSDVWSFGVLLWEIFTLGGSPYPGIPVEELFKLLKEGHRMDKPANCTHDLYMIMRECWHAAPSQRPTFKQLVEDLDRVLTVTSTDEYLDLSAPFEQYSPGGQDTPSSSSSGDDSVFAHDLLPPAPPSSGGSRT
FGFR3 Y373C, endogenous, KMS-11 multiple myeloma cells (human (endogenous in KMS-11)) (P22607, form named): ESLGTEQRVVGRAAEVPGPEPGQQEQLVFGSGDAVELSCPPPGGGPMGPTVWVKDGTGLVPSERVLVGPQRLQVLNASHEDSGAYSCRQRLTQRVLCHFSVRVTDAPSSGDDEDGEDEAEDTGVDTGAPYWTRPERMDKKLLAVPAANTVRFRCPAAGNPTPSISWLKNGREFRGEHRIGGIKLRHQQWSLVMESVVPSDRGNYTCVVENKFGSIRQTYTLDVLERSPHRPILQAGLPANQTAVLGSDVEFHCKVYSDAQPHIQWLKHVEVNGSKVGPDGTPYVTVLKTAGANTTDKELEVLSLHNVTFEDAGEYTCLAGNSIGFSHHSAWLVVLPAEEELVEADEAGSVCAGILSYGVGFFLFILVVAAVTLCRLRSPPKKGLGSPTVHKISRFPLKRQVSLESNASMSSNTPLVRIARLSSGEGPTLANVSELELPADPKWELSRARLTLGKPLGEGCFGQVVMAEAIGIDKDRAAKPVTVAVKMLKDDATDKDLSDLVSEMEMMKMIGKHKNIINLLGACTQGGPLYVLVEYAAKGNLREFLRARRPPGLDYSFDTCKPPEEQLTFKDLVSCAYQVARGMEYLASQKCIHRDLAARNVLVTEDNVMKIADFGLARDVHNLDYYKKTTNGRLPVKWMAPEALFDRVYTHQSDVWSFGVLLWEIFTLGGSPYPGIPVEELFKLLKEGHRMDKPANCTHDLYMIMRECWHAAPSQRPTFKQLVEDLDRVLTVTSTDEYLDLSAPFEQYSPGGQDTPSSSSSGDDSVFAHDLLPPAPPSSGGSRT
human FGFR3, constitutively active (K650E), transiently expressed in HeLa cells (P22607, form named): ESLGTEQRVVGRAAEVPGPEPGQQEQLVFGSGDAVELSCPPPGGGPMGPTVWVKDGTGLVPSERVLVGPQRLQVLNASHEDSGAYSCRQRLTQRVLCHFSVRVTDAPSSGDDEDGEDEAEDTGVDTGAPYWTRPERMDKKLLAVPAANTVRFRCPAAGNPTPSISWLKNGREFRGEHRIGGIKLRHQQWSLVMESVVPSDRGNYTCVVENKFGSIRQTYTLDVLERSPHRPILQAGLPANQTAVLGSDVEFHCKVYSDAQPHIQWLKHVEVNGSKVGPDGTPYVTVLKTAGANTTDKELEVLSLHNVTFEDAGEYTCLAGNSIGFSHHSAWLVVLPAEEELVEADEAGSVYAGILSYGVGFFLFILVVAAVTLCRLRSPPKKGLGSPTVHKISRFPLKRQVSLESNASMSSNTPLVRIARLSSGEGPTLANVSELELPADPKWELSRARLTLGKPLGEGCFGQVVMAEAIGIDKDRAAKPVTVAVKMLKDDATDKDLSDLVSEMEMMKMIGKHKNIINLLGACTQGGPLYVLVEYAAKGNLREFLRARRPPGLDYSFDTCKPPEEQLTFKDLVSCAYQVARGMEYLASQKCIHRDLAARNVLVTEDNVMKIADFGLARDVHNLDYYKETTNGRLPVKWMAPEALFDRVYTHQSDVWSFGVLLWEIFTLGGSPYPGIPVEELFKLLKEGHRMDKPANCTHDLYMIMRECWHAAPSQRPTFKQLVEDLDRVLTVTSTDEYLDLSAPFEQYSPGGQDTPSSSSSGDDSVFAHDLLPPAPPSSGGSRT
human FGFR3, kinase-dead (K508M), transiently expressed in HeLa cells (P22607, form named): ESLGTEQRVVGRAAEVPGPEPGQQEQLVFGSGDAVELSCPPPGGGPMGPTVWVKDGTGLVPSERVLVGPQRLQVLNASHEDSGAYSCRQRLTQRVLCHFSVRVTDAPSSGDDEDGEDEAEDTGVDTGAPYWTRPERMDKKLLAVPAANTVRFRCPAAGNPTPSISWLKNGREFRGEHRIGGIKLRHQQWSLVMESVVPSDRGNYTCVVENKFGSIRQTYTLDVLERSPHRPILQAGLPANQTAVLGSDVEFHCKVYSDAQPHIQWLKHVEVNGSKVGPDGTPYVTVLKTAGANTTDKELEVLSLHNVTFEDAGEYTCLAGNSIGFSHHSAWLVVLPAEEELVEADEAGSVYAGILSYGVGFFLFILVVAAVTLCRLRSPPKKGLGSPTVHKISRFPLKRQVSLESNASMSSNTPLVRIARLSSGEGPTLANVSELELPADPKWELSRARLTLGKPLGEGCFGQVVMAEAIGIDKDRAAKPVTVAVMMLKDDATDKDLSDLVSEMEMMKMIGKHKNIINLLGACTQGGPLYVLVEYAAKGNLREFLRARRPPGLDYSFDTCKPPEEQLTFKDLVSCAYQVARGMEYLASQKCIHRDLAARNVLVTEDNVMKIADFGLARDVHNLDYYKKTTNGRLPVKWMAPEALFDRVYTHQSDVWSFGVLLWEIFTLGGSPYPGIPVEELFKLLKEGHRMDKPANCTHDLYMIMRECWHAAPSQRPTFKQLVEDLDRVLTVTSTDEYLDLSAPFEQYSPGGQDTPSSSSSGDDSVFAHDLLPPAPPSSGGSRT
UniProt P21802, residues 22-821: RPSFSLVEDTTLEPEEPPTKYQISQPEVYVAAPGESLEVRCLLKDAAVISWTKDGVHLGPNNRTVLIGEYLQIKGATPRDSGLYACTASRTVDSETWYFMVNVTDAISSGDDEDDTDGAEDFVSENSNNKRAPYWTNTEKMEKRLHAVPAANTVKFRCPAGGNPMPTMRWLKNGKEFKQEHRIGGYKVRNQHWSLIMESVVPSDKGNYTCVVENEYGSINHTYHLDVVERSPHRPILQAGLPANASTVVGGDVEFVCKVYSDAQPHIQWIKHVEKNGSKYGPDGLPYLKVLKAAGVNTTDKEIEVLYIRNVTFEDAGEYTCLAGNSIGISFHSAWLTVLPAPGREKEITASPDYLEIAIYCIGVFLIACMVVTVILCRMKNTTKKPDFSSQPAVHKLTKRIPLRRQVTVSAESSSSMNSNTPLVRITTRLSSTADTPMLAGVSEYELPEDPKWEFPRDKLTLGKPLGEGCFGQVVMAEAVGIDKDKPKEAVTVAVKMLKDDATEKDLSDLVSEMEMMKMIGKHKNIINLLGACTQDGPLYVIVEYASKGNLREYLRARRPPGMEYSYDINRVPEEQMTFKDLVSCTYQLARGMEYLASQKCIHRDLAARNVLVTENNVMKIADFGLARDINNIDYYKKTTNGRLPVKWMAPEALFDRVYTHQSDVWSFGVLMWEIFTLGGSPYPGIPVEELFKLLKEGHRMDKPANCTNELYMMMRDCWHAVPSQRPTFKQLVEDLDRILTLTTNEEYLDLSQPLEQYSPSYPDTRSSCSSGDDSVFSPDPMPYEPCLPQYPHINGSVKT
UniProt P22455, residues 22-802: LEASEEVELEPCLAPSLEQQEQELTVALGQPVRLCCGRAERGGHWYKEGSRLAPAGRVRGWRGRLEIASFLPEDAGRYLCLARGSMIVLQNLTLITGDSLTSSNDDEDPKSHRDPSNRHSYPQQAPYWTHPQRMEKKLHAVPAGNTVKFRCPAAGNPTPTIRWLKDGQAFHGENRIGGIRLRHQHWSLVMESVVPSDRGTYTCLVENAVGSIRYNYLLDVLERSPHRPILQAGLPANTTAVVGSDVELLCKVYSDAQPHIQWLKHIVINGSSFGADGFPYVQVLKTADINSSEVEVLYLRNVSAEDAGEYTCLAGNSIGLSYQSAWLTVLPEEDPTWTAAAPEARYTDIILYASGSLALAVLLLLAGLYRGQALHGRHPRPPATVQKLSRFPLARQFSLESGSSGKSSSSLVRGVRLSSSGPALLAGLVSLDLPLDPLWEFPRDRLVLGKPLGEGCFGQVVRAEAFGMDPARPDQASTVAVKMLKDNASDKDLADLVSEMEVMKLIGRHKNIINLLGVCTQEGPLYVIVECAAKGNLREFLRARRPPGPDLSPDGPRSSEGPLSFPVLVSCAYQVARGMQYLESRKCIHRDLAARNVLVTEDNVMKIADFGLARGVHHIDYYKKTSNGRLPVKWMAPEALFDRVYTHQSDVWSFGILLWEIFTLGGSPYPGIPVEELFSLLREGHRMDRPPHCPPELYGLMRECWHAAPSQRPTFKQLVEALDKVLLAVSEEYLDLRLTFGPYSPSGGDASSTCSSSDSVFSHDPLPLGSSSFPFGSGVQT
UniProt P11362, residues 22-822: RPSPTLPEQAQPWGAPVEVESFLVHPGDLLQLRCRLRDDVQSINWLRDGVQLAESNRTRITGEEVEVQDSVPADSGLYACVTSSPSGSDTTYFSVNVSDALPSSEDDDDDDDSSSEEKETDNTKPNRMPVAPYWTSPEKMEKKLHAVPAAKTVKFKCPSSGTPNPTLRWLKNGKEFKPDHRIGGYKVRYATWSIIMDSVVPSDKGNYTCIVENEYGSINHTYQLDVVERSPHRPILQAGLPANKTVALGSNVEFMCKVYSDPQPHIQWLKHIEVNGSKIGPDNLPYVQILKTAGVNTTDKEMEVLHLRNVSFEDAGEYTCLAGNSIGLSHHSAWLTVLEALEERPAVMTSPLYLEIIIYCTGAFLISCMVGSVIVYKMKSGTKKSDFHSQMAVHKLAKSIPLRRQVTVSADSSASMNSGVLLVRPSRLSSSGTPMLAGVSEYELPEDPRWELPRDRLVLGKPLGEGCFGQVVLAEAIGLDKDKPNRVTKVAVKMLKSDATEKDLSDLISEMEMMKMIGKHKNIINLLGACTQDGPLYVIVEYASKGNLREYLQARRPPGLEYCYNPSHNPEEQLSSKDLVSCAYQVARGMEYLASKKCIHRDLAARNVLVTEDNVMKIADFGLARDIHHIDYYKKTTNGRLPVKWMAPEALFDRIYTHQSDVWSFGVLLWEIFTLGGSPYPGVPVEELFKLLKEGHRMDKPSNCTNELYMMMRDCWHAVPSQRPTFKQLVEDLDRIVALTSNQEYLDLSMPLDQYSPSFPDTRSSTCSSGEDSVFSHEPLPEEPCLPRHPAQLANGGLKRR
UniProt O43318: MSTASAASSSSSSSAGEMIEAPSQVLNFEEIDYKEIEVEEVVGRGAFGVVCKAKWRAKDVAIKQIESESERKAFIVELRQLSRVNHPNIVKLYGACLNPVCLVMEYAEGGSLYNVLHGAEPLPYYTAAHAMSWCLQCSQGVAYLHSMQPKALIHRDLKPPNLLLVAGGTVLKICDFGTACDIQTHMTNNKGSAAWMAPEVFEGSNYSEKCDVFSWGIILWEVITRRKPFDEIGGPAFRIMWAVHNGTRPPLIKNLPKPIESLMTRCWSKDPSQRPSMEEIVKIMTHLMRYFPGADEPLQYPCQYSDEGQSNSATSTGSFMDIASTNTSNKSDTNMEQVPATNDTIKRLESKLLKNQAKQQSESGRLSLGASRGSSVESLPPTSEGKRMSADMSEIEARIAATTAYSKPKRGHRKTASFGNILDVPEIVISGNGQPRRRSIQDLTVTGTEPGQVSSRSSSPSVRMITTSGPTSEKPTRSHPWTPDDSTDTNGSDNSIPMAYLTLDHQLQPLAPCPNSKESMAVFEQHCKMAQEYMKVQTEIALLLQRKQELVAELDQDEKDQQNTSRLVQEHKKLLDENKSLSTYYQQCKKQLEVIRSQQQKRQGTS

Columns and labels:
[1] = biological target: FGFR3 Y373C, endogenous, KMS-11 multiple myeloma cells (human (endogenous in KMS-11)) (UniProt P22607); experiment: co-IP; endogenous FGFR3 and TAK1 in LP1 and KMS-11 multiple myeloma cells; 1 mg total lysate, 1% Nonidet P-40 lysis buffer, protein A-Sepharose, immunoblot
[2] = biological target: FGFR3, endogenous wild-type, LP1 multiple myeloma cells (human (endogenous in LP1)) (UniProt P22607); experiment: as above
[3] = biological target: human FGFR3, constitutively active (K650E), transiently expressed in HeLa cells (human) (UniProt P22607); experiment: co-IP; HeLa cells transiently expressing FGFR3 constructs, endogenous TAK1; 1 mg total lysate, 1% Nonidet P-40 lysis buffer, protein A-Sepharose, immunoblot
[4] = biological target: human FGFR3, kinase-dead (K508M), transiently expressed in HeLa cells (human) (UniProt P22607); experiment: as above
[5] = biological target: human FGFR3, wild-type, transiently expressed in HeLa cells (human) (UniProt P22607); experiment: as above
[6] = biological target: FGFR2, overexpressed in HEK293 cells (UniProt P21802); experiment: co-IP; HEK293 cells overexpressing FGFR1, -2 or -4, endogenous TAK1; 1 mg total lysate, Dynabeads instead of protein A-sepharose, no preclear step, immunoblot
[7] = biological target: FGFR4, overexpressed in HEK293 cells (UniProt P22455); experiment: as above
[8] = biological target: human FGFR1, full-length ORF in pcDNA3.1, overexpressed in HEK293 cells (human) (UniProt P11362); experiment: as above
[9] = biological target: FGFR3, wild-type, overexpressed in MGHU3 bladder cancer cells (human) (UniProt P22607); experiment: co-IP; MGHU3 bladder cancer cells transfected with wild-type FGFR3, endogenous TAK1; 1 mg total lysate, 1% Nonidet P-40 lysis buffer, protein A-Sepharose, immunoblot

- binding [1]: binds
- binding [2]: binds
- binding [3]: binds
- binding [4]: binds
- binding [5]: binds
- binding [6]: binds
- binding [7]: binds
- binding [8]: binds
- binding [9]: binds
Substance: TGFβ-activated kinase 1 (TAK1), endogenous (from UniProt O43318 1-606)
